This passage reports binding results from patent US20150285810A1.

Positions count from the first letter of the chain named. Names may count otherwise. These are yes or no findings as the source states them, for the method shown. For some of these results: Binding seen in cells or lysates may run through a third protein. Some results given as binding are weak or reduced against the parent protein; the word gives no strength. For some of these results: Tags and fused reporters may be left off the sequences shown.

Test [1] has as its target T1, iASPP (625-828)-His (human) (UniProt Q8WUF5).
T1 sequence: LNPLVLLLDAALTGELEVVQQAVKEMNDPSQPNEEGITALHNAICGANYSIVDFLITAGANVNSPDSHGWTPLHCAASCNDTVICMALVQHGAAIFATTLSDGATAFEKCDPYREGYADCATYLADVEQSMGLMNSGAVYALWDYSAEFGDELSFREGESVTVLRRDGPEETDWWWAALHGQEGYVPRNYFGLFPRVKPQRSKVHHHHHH
The test can be described thus: glutathione bead pull-down of purified proteins, anti-His blot.

Test [2] deals with T2, iASPP (1-240)-GST (human) (UniProt Q8WUF5).
T2 sequence: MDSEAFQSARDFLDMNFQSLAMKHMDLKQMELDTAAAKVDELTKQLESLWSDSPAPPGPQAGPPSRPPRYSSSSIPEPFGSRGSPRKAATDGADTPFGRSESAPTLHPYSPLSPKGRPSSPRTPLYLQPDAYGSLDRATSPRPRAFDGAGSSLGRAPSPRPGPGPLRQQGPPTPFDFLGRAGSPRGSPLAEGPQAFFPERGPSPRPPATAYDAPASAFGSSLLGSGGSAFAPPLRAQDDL
The test can be described thus: in vitro translated iASPP(625-828)-V5 mutant pulled down with iASPP(1-240)-GST glutathione beads.

Test [3] addresses T3, iASPP (inhibitory Apoptosis-Stimulating Protein of p53), fast-migrating, non-modified form (not phosphorylated at Ser84/Ser113) (human), Q8WUF5.
T3 chain: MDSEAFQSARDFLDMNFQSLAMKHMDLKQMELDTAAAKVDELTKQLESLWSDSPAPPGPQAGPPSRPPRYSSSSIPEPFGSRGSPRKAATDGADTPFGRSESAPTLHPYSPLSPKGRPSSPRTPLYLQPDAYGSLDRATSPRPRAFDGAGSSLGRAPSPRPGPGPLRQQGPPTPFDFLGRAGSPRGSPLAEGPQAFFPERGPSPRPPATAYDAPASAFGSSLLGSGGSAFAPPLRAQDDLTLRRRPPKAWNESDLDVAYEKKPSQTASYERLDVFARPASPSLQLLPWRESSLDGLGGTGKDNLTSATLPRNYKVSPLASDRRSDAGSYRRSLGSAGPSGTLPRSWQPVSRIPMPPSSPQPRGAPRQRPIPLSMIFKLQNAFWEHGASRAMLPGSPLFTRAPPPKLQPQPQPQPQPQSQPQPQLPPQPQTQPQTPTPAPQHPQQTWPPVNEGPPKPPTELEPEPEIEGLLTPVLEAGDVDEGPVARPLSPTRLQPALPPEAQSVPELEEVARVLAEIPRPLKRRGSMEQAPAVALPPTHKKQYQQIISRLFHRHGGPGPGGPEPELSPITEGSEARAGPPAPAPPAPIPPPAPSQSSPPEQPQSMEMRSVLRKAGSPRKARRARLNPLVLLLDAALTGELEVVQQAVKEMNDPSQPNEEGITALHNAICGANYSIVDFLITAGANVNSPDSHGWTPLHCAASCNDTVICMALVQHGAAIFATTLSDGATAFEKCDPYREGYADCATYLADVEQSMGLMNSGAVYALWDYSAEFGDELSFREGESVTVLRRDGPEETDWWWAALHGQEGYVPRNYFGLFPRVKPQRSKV
The test can be described thus: non-denaturing versus denaturing gel Western blot of H1299 lysates. The note with it: remark: other sources report otherwise.

B1: iASPP (1-240)-GST (protein, not shown: a dimerising Fc or GST)
chain: T2 sequence
For the molecule B1, the binding entry in test [1] is on record as “binds”.

B2: iASPP(625-828)/T724A/N813A (protein, not shown: small tags and cut ends)
chain: LNPLVLLLDAALTGELEVVQQAVKEMNDPSQPNEEGITALHNAICGANYSIVDFLITAGANVNSPDSHGWTPLHCAASCNDTVICMALVQHGAAIFATTASDGATAFEKCDPYREGYADCATYLADVEQSMGLMNSGAVYALWDYSAEFGDELSFREGESVTVLRRDGPEETDWWWAALHGQEGYVPRAYFGLFPRVKPQRSKV
For the molecule B2, the binding entry in test [2] is listed as “binds”.

B3: iASPP(625-828)/T724A/Y814A (protein, not shown: small tags and cut ends)
chain: B2 chain with A189N, Y190A
Take B3: the binding entry in test [2] is reported as “binds”.

B4: iASPP (inhibitory Apoptosis-Stimulating Protein of p53), fast-migrating, non-modified form (not phosphorylated at Ser84/Ser113), Q8WUF5 1-828 (protein)
chain: T3 chain
B4: in test [3], the binding entry was “binds”.
